PubChem BioAssay AID1508597, Cure First | 2020

- Assay: 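Survival screen with siRNA in ovarian cancer cells derived from patients, with or without rucaparib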 (primary screen)
- System: human ovarian carcinoma lines grown from tumours: OCI-P5x (papillary serous) and OCI-C5x (clear cell)
- Knock-down reagent: siRNA pool against human genes, 1.25 pmol siRNA per well
- Timing: 72 h or 96 h, depending on the cell culture
- Challenge: rucaparib 20 µM (about IC30) or vehicle, present until read-out
- Rucaparib or vehicle: Rucaparib
- Cell line: OCI-P5x (serous)
- Detection: 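Luminescent ATP-based viability assay read 72 or 96 h after transfection, depending on culture, given as normalised percent viability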
- Direction: viability, normalised: higher = more viable cells remaining
- Rule for the call: 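Active when normalised viability falls below 80 percent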
- Calls: active = viability under 80%; inactive = viability 80% or more
This is a random part of the about 2,100 reagents, under one of the conditions tested. 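Calls flag viability under 80% in either arm, not effects specific to rucaparib; the reference for percent is not stated.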 Entries without a mark were called inactive. A reagent listed more than once was tested more than once; the source does not tell the runs apart. Reagent sequences are not shown. Not given: the 100% reference.

| gene | technical replicate | viability, normalised (%) |
| --- | --- | --- |
| CNOT12 (GeneID 85456) | 1 | 49 (active) |
| CNOT12 (GeneID 85456) | 2 | 48.1 (active) |
| CNOT12 (GeneID 85456) | 3 | 42 (active) |
| EPC1 (GeneID 80314) | 1 | 45.4 (active) |
| EPC1 (GeneID 80314) | 2 | 45.4 (active) |
| EPC1 (GeneID 80314) | 3 | 56.4 (active) |
| AGO2 (GeneID 27161) | 1 | 70.9 (active) |
| AGO2 (GeneID 27161) | 2 | 71.7 (active) |
| AGO2 (GeneID 27161) | 3 | 65.9 (active) |
| TRERF1 (GeneID 55809) | 1 | 73.6 (active) |
| TRERF1 (GeneID 55809) | 2 | 64.7 (active) |
| TRERF1 (GeneID 55809) | 3 | 71.5 (active) |
| GLYR1 (GeneID 84656) | 1 | 93.9 |
| GLYR1 (GeneID 84656) | 2 | 87.3 |
| GLYR1 (GeneID 84656) | 3 | 89.6 |
| KTI12 (GeneID 112970) | 1 | 61.6 (active) |
| KTI12 (GeneID 112970) | 2 | 59.9 (active) |
| KTI12 (GeneID 112970) | 3 | 62.3 (active) |
| YY1 (GeneID 7528) | 1 | 62.3 (active) |
| YY1 (GeneID 7528) | 1 | 48.2 (active) |
| YY1 (GeneID 7528) | 2 | 60.3 (active) |
| YY1 (GeneID 7528) | 2 | 70.1 (active) |
| YY1 (GeneID 7528) | 3 | 54.7 (active) |
| YY1 (GeneID 7528) | 3 | 70.2 (active) |
| USH2A (GeneID 7399) | 1 | 52 (active) |
| USH2A (GeneID 7399) | 2 | 52.3 (active) |
| USH2A (GeneID 7399) | 3 | 79.3 (active) |
| PRKY (GeneID 5616) | 1 | 96.2 |
| PRKY (GeneID 5616) | 2 | 83.8 |
| PRKY (GeneID 5616) | 3 | 65.6 (active) |
| PRDM6 (GeneID 93166) | 1 | 32.2 (active) |
| PRDM6 (GeneID 93166) | 2 | 56.1 (active) |
| PRDM6 (GeneID 93166) | 3 | 44.9 (active) |
| KHK (GeneID 3795) | 1 | 71.2 (active) |
| KHK (GeneID 3795) | 2 | 61.6 (active) |
| KHK (GeneID 3795) | 3 | 61.3 (active) |
| MED15 (GeneID 51586) | 1 | 55.4 (active) |
| MED15 (GeneID 51586) | 2 | 70.2 (active) |
| MED15 (GeneID 51586) | 3 | 63 (active) |
| CTPS1 (GeneID 1503) | 1 | 44.6 (active) |
| CTPS1 (GeneID 1503) | 2 | 43.3 (active) |
| CTPS1 (GeneID 1503) | 3 | 59 (active) |

Next part (9 carried over from the part before).
| gene | technical replicate | viability, normalised (%) |
| --- | --- | --- |
| KHK (GeneID 3795) | 1 | 71.2 (active) |
| KHK (GeneID 3795) | 2 | 61.6 (active) |
| KHK (GeneID 3795) | 3 | 61.3 (active) |
| MED15 (GeneID 51586) | 1 | 55.4 (active) |
| MED15 (GeneID 51586) | 2 | 70.2 (active) |
| MED15 (GeneID 51586) | 3 | 63 (active) |
| CTPS1 (GeneID 1503) | 1 | 44.6 (active) |
| CTPS1 (GeneID 1503) | 2 | 43.3 (active) |
| CTPS1 (GeneID 1503) | 3 | 59 (active) |
| NRXN2 (GeneID 9379) | 1 | 45.8 (active) |
| NRXN2 (GeneID 9379) | 2 | 50.2 (active) |
| NRXN2 (GeneID 9379) | 3 | 39 (active) |
| MAP2K7 (GeneID 5609) | 1 | 58.1 (active) |
| MAP2K7 (GeneID 5609) | 1 | 74.8 (active) |
| MAP2K7 (GeneID 5609) | 2 | 63.4 (active) |
| MAP2K7 (GeneID 5609) | 2 | 49.3 (active) |
| MAP2K7 (GeneID 5609) | 3 | 58.5 (active) |
| MAP2K7 (GeneID 5609) | 3 | 65.1 (active) |
| MAP3K8 (GeneID 1326) | 1 | 102 |
| MAP3K8 (GeneID 1326) | 2 | 88.7 |
| MAP3K8 (GeneID 1326) | 3 | 86.1 |
| ATRIP (GeneID 84126) | 1 | 39.3 (active) |
| ATRIP (GeneID 84126) | 2 | 35.3 (active) |
| ATRIP (GeneID 84126) | 3 | 43.9 (active) |
| GEMIN4 (GeneID 50628) | 1 | 82.6 |
| GEMIN4 (GeneID 50628) | 2 | 73 (active) |
| GEMIN4 (GeneID 50628) | 3 | 80.8 |
| TRIB3 (GeneID 57761) | 1 | 86 |
| TRIB3 (GeneID 57761) | 2 | 58.7 (active) |
| TRIB3 (GeneID 57761) | 3 | 71.1 (active) |
| TGFB1 (GeneID 7040) | 1 | 71.8 (active) |
| TGFB1 (GeneID 7040) | 2 | 66 (active) |
| TGFB1 (GeneID 7040) | 3 | 64.5 (active) |
| RAD51C (GeneID 5889) | 1 | 72.5 (active) |
| RAD51C (GeneID 5889) | 2 | 65.7 (active) |
| RAD51C (GeneID 5889) | 3 | 58.3 (active) |
| EIF4A3 (GeneID 9775) | 1 | 39.5 (active) |
| EIF4A3 (GeneID 9775) | 2 | 48 (active) |
| EIF4A3 (GeneID 9775) | 3 | 47.9 (active) |
| ZFYVE9 (GeneID 9372) | 1 | 64.6 (active) |
| ZFYVE9 (GeneID 9372) | 2 | 40.3 (active) |
| ZFYVE9 (GeneID 9372) | 3 | 49.9 (active) |
